# Measurements as given in PubChem BioAssay AID463205 (Broad Institute, 2010).
# Among all 2,400 compounds or so, about 20 (0.8%) were called active.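 Rule for the calls: active = AC50 no more than ten times the highest tested concentration, or full inhibition at every dose giving a flat fit (cut at about 30 µM in these data); inconclusive = flat fit with activity between 30% and 70%, or poor-quality invalid fit; inactive = AC50 more than ten times the top tested dose.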 The list shows a part of the results.
# Assay: inhibitors of ADP-Glo detection reagents, dose response, artefact control for GSK-3a inhibitor project, biochemical, luminescence, cell-free, homogeneous (AID 463205);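 note: kinase-free counter-screen against the ADP-Glo detection reagents only; potency is for inhibitors that reduce the luminescence signal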
# Conditions: 5 uM ADP
row,SMILES,AC50
1,CCc1nnc(NS(=O)(=O)c2ccc(N/C=C(\C=O)c3nc4cc(Cl)ccc4o3)cc2)s1,inactive: > 30 µM
